No constants are given. Whether binding was seen depends on the method and setting. Some results given as binding are weak or reduced against the parent protein; the word gives no strength. Where a sequence is shown, tags or fusion partners need not be part of it.
Experiments:
[1] = biological target: T1, recombinant human RSPO3 protein (human, UniProt Q9BXY4 22-272); test: ELISA: biotinylated LGR5 (22-560)-Fc on coated hRSPO3, streptavidin-HRP [A]
T1 sequence (looked up): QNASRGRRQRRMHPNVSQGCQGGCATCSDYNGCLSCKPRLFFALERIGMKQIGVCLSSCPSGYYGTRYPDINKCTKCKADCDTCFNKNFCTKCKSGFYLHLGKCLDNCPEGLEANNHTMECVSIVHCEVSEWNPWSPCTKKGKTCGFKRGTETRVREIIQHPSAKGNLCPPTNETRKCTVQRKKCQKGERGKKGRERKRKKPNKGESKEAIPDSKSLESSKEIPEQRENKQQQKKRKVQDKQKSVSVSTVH

[2] = biological target: T1, recombinant human RSPO3 protein; test: ELISA: His-tagged RNF43 on coated hRSPO3, anti-His tag antibody-HRP [B]

B1: Recombinant LGR5 (22-560)-Fc (Fc fusion, UniProt O75473 22-560, looked up, not shown: a dimerising Fc or GST)
chain: GSSPRSGVLLRGCPTHCHCEPDGRMLLRVDCSDLGLSELPSNLSVFTSYLDLSMNNISQLLPNPLPSLRFLEELRLAGNALTYIPKGAFTGLYSLKVLMLQNNQLRHVPTEALQNLRSLQSLRLDANHISYVPPSCFSGLHSLRHLWLDDNALTEIPVQAFRSLSALQAMTLALNKIHHIPDYAFGNLSSLVVLHLHNNRIHSLGKKCFDGLHSLETLDLNYNNLDEFPTAIRTLSNLKELGFHSNNIRSIPEKAFVGNPSLITIHFYDNPIQFVGRSAFQHLPELRTLTLNGASQITEFPDLTGTANLESLTLTGAQISSLPQTVCNQLPNLQVLDLSYNLLEDLPSFSVCQKLQKIDLRHNEIYEIKVDTFQQLLSLRSLNLAWNKIAIIHPNAFSTLPSLIKLDLSSNLLSSFPITGLHGLTHLKLTGNHALQSLISSENFPELKVIEMPYAYQCCAFGVCENAYKISNQWNKGDNSSMDDLHKKDAGMFQAQDERDLEDFLLDFEEDLKALHSVQCSPSPGPFKPCEHLLDGWLI
modifications: conjugated with biotin
B1 was tested. Which binding [1] did it give?
Its binding is “binds”.

B2: recombinant His-tagged RNF43 (RNF43-His 16108-H08H, Sino Biological) (receptor, UniProt Q68DV7 24-197, looked up, not shown: small tags and cut ends)
chain: GFGRTGLVLAAAVESERSAEQKAIIRVIPLKMDPTGKLNLTLEGVFAGVAEITPAEGKLMQSHPLYLCNASDDDNLEPGFISIVKLESPRRAPRPCLSLASKARMAGERGASAVLFDITEDRAAAEQLQQPLGLTWPVVLIWGNDAEKLMEFVYKNQKAHVRIELKEPPAWPDY
Which binding [2] does the source give for B2 here?
The binding was “binds”.
